Assay results: US7666882B2, “Anthranilamide insecticides” (E.I. du Pont de Nemours and Company, priority 2002, dated 2010)
Some entries share one result that the patent states for a list of compounds.

Tests used:
Type in all cases: in vivo
[1] = tested on: diamondback moth (Plutella xylostella); test: Test A: control of diamondback moth on radish plant, foliar spray; settings: neonate larvae, 6 days, 25° C.
[2] = tested on: fall armyworm (Spodoptera frugiperda); test: Test B: control of fall armyworm on corn (maize) plant, foliar spray; settings: 1-day-old larvae, 6 days
[3] = tested on: green peach aphid (Myzus persicae); test: Test C: control of green peach aphid through contact and/or systemic means on radish plant; settings: sprayed at 250 ppm, 6 days, 19-21° C.

| Structure (SMILES) | feeding damage (plant protection, visually assessed on foliage consumed) ([1]; sprayed at 50 ppm) [%] | feeding damage (plant protection, visually rated) ([2]; sprayed at 50 ppm) [%] | insect mortality [3] | feeding damage (plant protection, visually assessed on foliage consumed) ([1]; sprayed at 10 ppm) [%] | feeding damage (plant protection, visually rated) ([2]; sprayed at 10 ppm) [%] |
| --- | --- | --- | --- | --- | --- |
| CCOCCOc1cc(C(=O)Nc2c(Cl)cc(Cl)cc2C(=O)NC)n(-c2ncccc2Cl)n1 [Compound 3] | ≤ 20 | ≤ 20 | – | – | – |
| CCOCCOc1cc(C(=O)Nc2c(Cl)cc(Cl)cc2C(=O)NC(C)C)n(-c2ncccc2Cl)n1 [Compound 4] | ≤ 20 | ≤ 20 | – | – | – |
| CNC(=O)c1cc(Cl)cc(Cl)c1NC(=O)c1cc(OCc2ccccc2)nn1-c1ncccc1Cl [Compound 5] | ≤ 20 | ≤ 20 | – | – | – |
| C#CCOc1cc(C(=O)Nc2c(Cl)cc(Cl)cc2C(=O)N(C)C)n(-c2ncccc2Cl)n1 [Compound 6] | ≤ 20 | ≤ 20 | – | – | – |
| C#CCOc1cc(C(=O)Nc2c(Cl)cc(Cl)cc2C(=O)NC)n(-c2ncccc2Cl)n1 [Compound 7] | ≤ 20 | ≤ 20 | – | – | – |
| CNC(=O)c1cc(Cl)cc(Cl)c1NC(=O)c1cc(OCC#N)nn1-c1ncccc1Cl [Compound 11] | ≤ 20 | ≤ 20 | at least 80% | – | – |
| CNC(=O)c1cc(Cl)cc(Cl)c1NC(=O)c1cc(OCc2ccc(Cl)nc2)nn1-c1ncccc1Cl [Compound 12] | ≤ 20 | ≤ 20 | – | – | – |
| CNC(=O)c1cc(Cl)cc(C)c1NC(=O)c1cc(OCOC)nn1-c1ncccc1Cl [Compound 13] | ≤ 20 | ≤ 20 | – | – | – |
| CC(C)NC(=O)c1cc(Cl)cc(Cl)c1NC(=O)c1cc(OCC#N)nn1-c1ncccc1Cl [Compound 14] | ≤ 20 | ≤ 20 | – | – | – |
| CNC(=O)c1cc(Cl)cc(Cl)c1NC(=O)c1cc(OS(=O)(=O)C(F)(F)F)nn1-c1ncccc1Cl [Compound 15] | ≤ 20 | ≤ 20 | – | – | – |
| C=C(Cl)COc1cc(C(=O)Nc2c(Cl)cc(Cl)cc2C(=O)NC)n(-c2ncccc2Cl)n1 [Compound 16] | ≤ 20 | ≤ 20 | – | – | – |
| CNC(=O)c1cc(Cl)cc(C)c1NC(=O)c1cc(OS(=O)(=O)C(F)(F)F)nn1-c1ncccc1Cl [Compound 17] | ≤ 20 | ≤ 20 | – | – | – |
| CNC(=O)c1cc(C#N)cc(C)c1NC(=O)c1cc(OCC#N)nn1-c1ncccc1Cl [Compound 18] | – | – | at least 80% | ≤ 20 | ≤ 20 |
